Reference: publication PMC8041783
These are yes or no findings as the source states them, for the method shown. For some assays here: Binding seen in cells or lysates may run through a third protein. Some results given as binding are weak or reduced against the parent protein; the word gives no strength. For some assays here: Sequences can lack the tags named with a protein.

T1: His-FliI (Salmonella enterica), P26465
T1 chain: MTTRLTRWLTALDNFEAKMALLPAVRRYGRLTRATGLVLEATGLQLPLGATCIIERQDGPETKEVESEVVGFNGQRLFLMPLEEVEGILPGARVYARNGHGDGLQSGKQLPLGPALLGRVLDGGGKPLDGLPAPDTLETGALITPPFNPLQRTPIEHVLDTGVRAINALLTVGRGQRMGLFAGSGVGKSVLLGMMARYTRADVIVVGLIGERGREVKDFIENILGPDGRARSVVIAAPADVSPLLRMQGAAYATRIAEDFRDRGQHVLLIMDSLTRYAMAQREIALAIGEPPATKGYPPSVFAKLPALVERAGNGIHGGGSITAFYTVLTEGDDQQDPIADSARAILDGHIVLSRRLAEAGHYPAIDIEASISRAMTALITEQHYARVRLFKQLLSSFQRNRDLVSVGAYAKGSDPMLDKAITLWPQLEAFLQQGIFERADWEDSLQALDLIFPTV


What was measured:
[1] = biological target: His-FliI (Salmonella enterica) (UniProt P26465); experiment: pull-down; Ni-NTA affinity chromatography of lysates of S. enterica SJW1368 co-expressing untagged FliH with His-FliI or its variants; wash 20 mM Tris-HCl pH 8.0, 500 mM NaCl, 50 mM imidazole; stepwise elution with 100, 250, 500 mM imidazole; SDS-PAGE with CBB
[2] = biological target: T1, His-FliI (Salmonella enterica), P26465; experiment: negative-stain electron microscopy; purified FliI 1 μM in 50 mM Tris-HCl pH 8.0, 113 mM NaCl, 0.8 mM EDTA, 1 mM DTT with 5 mM MgCl2, 5 mM ADP, 5 mM AlCl3, 15 mM NaF, 20 min at room temperature; uranyl acetate stain; reference-free 2D class averages (RELION); monomers to hexameric ring; both purified; settings: remark: other sources report otherwise

Row | Binder | binding [1] | binding [2]
1 | FliH (protein, UniProt P15934 1-235) MSNELPWQVWTPDDLAPPPETFVPVEADNVTLTEDTPEPELTAEQQLEQELAQLKIQAHEQGYNAGLAEGRQKGHAQGYQEGLAQGLEQGQAQAQTQQAPIHARMQQLVSEFQNTLDALDSVIASRLMQMALEAARQVIGQTPAVDNSALIKQIQQLLQQEPLFSGKPQLRVHPDDLQRVEEMLGATLSLHGWRLRGDPTLHHGGCKVSADEGDLDASVATRWQELCRLAAPGVL | binds | 
2 | His-FliI, P26465 1-456 (enzyme) MTTRLTRWLTALDNFEAKMALLPAVRRYGRLTRATGLVLEATGLQLPLGATCIIERQDGPETKEVESEVVGFNGQRLFLMPLEEVEGILPGARVYARNGHGDGLQSGKQLPLGPALLGRVLDGGGKPLDGLPAPDTLETGALITPPFNPLQRTPIEHVLDTGVRAINALLTVGRGQRMGLFAGSGVGKSVLLGMMARYTRADVIVVGLIGERGREVKDFIENILGPDGRARSVVIAAPADVSPLLRMQGAAYATRIAEDFRDRGQHVLLIMDSLTRYAMAQREIALAIGEPPATKGYPPSVFAKLPALVERAGNGIHGGGSITAFYTVLTEGDDQQDPIADSARAILDGHIVLSRRLAEAGHYPAIDIEASISRAMTALITEQHYARVRLFKQLLSSFQRNRDLVSVGAYAKGSDPMLDKAITLWPQLEAFLQQGIFERADWEDSLQALDLIFPTV |  | no binding (tested: 1 μM)
